Assay [1] deals with BCL10 WT (HA-BCL10 WT and Flag-BCL10 WT) (UniProt O95999). In words: co-IP; Flag-IP from HEK293 cells transfected with Flag- and HA-tagged BCL10 constructs; Western blot. On the technique in general: A western blot detects proteins with antibodies after separation by electrophoresis.
For a further assay, the target named is T1, Flag-BCL10 R42E, O95999.
T1 chain: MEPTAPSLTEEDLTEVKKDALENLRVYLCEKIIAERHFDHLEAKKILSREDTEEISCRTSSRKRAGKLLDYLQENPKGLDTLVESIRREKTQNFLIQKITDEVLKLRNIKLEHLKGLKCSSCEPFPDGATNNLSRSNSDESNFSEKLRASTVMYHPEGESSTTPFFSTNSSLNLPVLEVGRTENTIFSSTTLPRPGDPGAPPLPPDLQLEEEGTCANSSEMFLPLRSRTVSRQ
Described as above. The note with it: remark: other sources report otherwise.

No constants are given. Whether binding was seen depends on the method and setting. In cells and extracts the contact can be indirect. Some entries that bind do so weakly or less than the wild type. Sequences can lack the tags named with a protein.

B1: BCL10 WT (HA-BCL10 WT and Flag-BCL10 WT) (protein, UniProt O95999 1-233)
chain: MEPTAPSLTEEDLTEVKKDALENLRVYLCEKIIAERHFDHLRAKKILSREDTEEISCRTSSRKRAGKLLDYLQENPKGLDTLVESIRREKTQNFLIQKITDEVLKLRNIKLEHLKGLKCSSCEPFPDGATNNLSRSNSDESNFSEKLRASTVMYHPEGESSTTPFFSTNSSLNLPVLEVGRTENTIFSSTTLPRPGDPGAPPLPPDLQLEEEGTCANSSEMFLPLRSRTVSRQ
For the molecule B1, the binding result in assay [1] was “binds”.

B2: BCL10 WT (HA-BCL10 WT and Flag-BCL10 WT), O95999 1-233 (protein)
chain: MEPTAPSLTEEDLTEVKKDALENLRVYLCEKIIAERHFDHLRAKKILSREDTEEISCRTSSRKRAGKLLDYLQENPKGLDTLVESIRREKTQNFLIQKITDEVLKLRNIKLEHLKGLKCSSCEPFPDGATNNLSRSNSDESNFSEKLRASTVMYHPEGESSTTPFFSTNSSLNLPVLEVGRTENTIFSSTTLPRPGDPGAPPLPPDLQLEEEGTCANSSEMFLPLRSRTVSRQ
With B2, the binding result with Flag-BCL10 R42E, O95999 is “no binding”.

(Values after PMC6255920.)
